{"source": "paper PMC4491177", "about": "“Co-translational capturing of nascent ribosomal proteins by their dedicated chaperones” (Nature Communications, 2015)", "binders": {"B1": {"name": "Rpl10 (endogenous) (protein, UniProt P41805 1-221)", "chain": "MARRPARCYRYQKNKPYPKSRYNRAVPDSKIRIYDLGKKKATVDEFPLCVHLVSNELEQLSSEALEAARICANKYMTTVSGRDAFHLRVRVHPFHVLRINKMLSCAGADRLQQGMRGAWGKPHGLAARVDIGQIIFSVRTKDSNKDVVVEGLRRARYKFPGQQKIILSKKWGFTNLDRPEYLKKREAGEVKDDGAFVKFLSKKGSLENNIREFPEYFAAQA"}, "B2": {"name": "Rpl10.R3E (yeast two-hybrid fusion) (protein, UniProt P41805 1-221)", "chain": "B1 chain with R3E"}, "B3": {"name": "Rpl10.R4A (yeast two-hybrid fusion) (protein, UniProt P41805 1-221)", "chain": "B1 chain with R4A"}, "B4": {"name": "Sqt1-Flag (protein, UniProt P35184 1-431)", "chain": "MEPQEEFITTEEVEQEIVPTVEVEQDVPVDIEGENDDDDEMMNDDEEALEVDMSNNSLTYFDKHTDSVFAIGHHPNLPLVCTGGGDNLAHLWTSHSQPPKFAGTLTGYGESVISCSFTSEGGFLVTADMSGKVLVHMGQKGGAQWKLASQMQEVEEIVWLKTHPTIARTFAFGATDGSVWCYQINEQDGSLEQLMSGFVHQQDCSMGEFINTDKGENTLELVTCSLDSTIVAWNCFTGQQLFKITQAEIKGLEAPWISLSLAPETLTKGNSGVVACGSNNGLLAVINCNNGGAILHLSTVIELKPEQDELDASIESISWSSKFSLMAIGLVCGEILLYDTSAWRVRHKFVLEDSVTKLMFDNDDLFASCINGKVYQFNARTGQEKFVCVGHNMGVLDFILLHPVANTGTEQKRKVITAGDEGVSLVFEVPN"}, "B5": {"name": "Sqt1.53C-Flag (domain or fragment, UniProt P35184 53-431)", "chain": "MSNNSLTYFDKHTDSVFAIGHHPNLPLVCTGGGDNLAHLWTSHSQPPKFAGTLTGYGESVISCSFTSEGGFLVTADMSGKVLVHMGQKGGAQWKLASQMQEVEEIVWLKTHPTIARTFAFGATDGSVWCYQINEQDGSLEQLMSGFVHQQDCSMGEFINTDKGENTLELVTCSLDSTIVAWNCFTGQQLFKITQAEIKGLEAPWISLSLAPETLTKGNSGVVACGSNNGLLAVINCNNGGAILHLSTVIELKPEQDELDASIESISWSSKFSLMAIGLVCGEILLYDTSAWRVRHKFVLEDSVTKLMFDNDDLFASCINGKVYQFNARTGQEKFVCVGHNMGVLDFILLHPVANTGTEQKRKVITAGDEGVSLVFEVPN"}, "B6": {"name": "first 64 amino acids of Rpl10 (yeast two-hybrid fusion) (domain or fragment, UniProt P41805 1-64)", "chain": "MARRPARCYRYQKNKPYPKSRYNRAVPDSKIRIYDLGKKKATVDEFPLCVHLVSNELEQLSSEA"}, "B7": {"name": "Rpl10-2xHA (protein, UniProt P41805 1-221)", "chain": "B1 chain"}}, "key": {"Sqt1-TAP (S. cerevisiae) [1]": {"target": "T1, Sqt1-TAP (S. cerevisiae) (UniProt P35184)", "T1 sequence": "B4 chain", "assay": "tandem-affinity purification (TAP); TAP-tagged bait purified from yeast cell lysates; 50 mM Tris-HCl (pH 7.5), 100 mM NaCl, 1.5 mM MgCl2, 5% glycerol, 0.1% NP-40; final EGTA eluates on SDS-PAGE, Coomassie staining"}, "[2]": {"target": "T2, Sqt1 D420K (yeast two-hybrid fusion) (S. cerevisiae) (UniProt P35184)", "T2 sequence": "B4 chain with D420K", "assay": "two-hybrid; bait fused to the Gal4 DNA-binding domain, prey to the Gal4 activation domain, reporter strain PJ69-4A; HIS3 and ADE2 reporters, plates 3 days at 30 °C"}, "[3]": {"target": "T3, Sqt1 E156K (yeast two-hybrid fusion) (S. cerevisiae) (UniProt P35184)", "T3 sequence": "B4 chain with E156K", "assay": "two-hybrid; bait fused to the Gal4 DNA-binding domain, prey to the Gal4 activation domain, reporter strain PJ69-4A; HIS3 and ADE2 reporters, plates 3 days at 30 °C"}, "[4]": {"target": "T4, Sqt1 E315A (yeast two-hybrid fusion) (S. cerevisiae) (UniProt P35184)", "T4 sequence": "B4 chain with E315A", "assay": "two-hybrid; bait fused to the Gal4 DNA-binding domain, prey to the Gal4 activation domain, reporter strain PJ69-4A; HIS3 and ADE2 reporters, plates 3 days at 30 °C"}, "[5]": {"target": "T5, Rpl10(1–20)-(His)6 (S. cerevisiae)", "T5 sequence": "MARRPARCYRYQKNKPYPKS", "assay": "pull-down; (His)6-tagged Rpl10 variant and Sqt1 variant co-expressed in E. coli from pETDuet-1; Ni-NTA agarose purification from the soluble extract; 50 mM Tris-HCl (pH 7.5), 200 mM NaCl, 1.5 mM MgCl2, 5% glycerol, 0.1% NP-40, 4 °C; imidazole eluate on SDS-PAGE, Coomassie and western blot"}, "[6]": {"target": "T6, Rpl10-(His)6 (S. cerevisiae) (UniProt P41805)", "T6 sequence": "B1 chain", "assay": "pull-down; (His)6-tagged Rpl10 variant and Sqt1 variant co-expressed in E. coli from pETDuet-1; Ni-NTA agarose purification from the soluble extract; 50 mM Tris-HCl (pH 7.5), 200 mM NaCl, 1.5 mM MgCl2, 5% glycerol, 0.1% NP-40, 4 °C; imidazole eluate on SDS-PAGE, Coomassie and western blot"}, "[7]": {"target": "T7, Sqt1 (yeast two-hybrid fusion) (S. cerevisiae) (UniProt P35184)", "T7 sequence": "B4 chain", "assay": "two-hybrid; data not shown"}, "Sqt1-TAP (S. cerevisiae) [8]": {"target": "T1, Sqt1-TAP (S. cerevisiae)", "assay": "affinity purification of a TAP-tagged bait from yeast cells (in vivo co-purification); Sqt1-TAP or NTAP-Rrb1 bait; yEGFP fusions or 2xHA-tagged ribosomal proteins as prey; Supplementary Fig. 3b,c, methods not shown"}, "[9]": {"target": "T7, Sqt1 (yeast two-hybrid fusion) (S. cerevisiae)", "assay": "two-hybrid; bait fused to the Gal4 DNA-binding domain, prey to the Gal4 activation domain, reporter strain PJ69-4A; HIS3 and ADE2 reporters, plates 3 days at 30 °C"}, "[10]": {"target": "T8, Sqt1.53C (yeast two-hybrid fusion) (S. cerevisiae) (UniProt P35184)", "T8 sequence": "B5 chain", "assay": "two-hybrid; bait fused to the Gal4 DNA-binding domain, prey to the Gal4 activation domain, reporter strain PJ69-4A; HIS3 and ADE2 reporters, plates 3 days at 30 °C"}}, "note": "Where a chain is given by its changes, count along the chain named. Numbers in names are those of the source. Results are given in words; binding and its absence hold for the method and conditions named. For part of these data: In cells and extracts the contact can be indirect. Some results given as binding are weak or reduced against the parent protein; the word gives no strength. For part of these data: Sequences can lack the tags named with a protein."}
{"binder": "B1", "values": [{"measurement": "binding", "setting": "Sqt1-TAP (S. cerevisiae) [1]", "value": "binds"}]}
{"binder": "B2", "values": [{"measurement": "binding", "setting": "[2]", "value": "no binding"}, {"measurement": "binding", "setting": "[3]", "value": "binds"}, {"measurement": "binding", "setting": "[4]", "value": "no binding"}]}
{"binder": "B3", "values": [{"measurement": "binding", "setting": "[2]", "value": "binds"}, {"measurement": "binding", "setting": "[3]", "value": "no binding"}, {"measurement": "binding", "setting": "[4]", "value": "no binding"}]}
{"binder": "B4", "values": [{"measurement": "binding", "setting": "[5]", "value": "binds"}, {"measurement": "binding", "setting": "[6]", "value": "binds"}]}
{"binder": "B5", "values": [{"measurement": "binding", "setting": "[5]", "value": "binds"}]}
{"binder": "B6", "values": [{"measurement": "binding", "setting": "[7]", "value": "binds"}]}
{"binder": "MARRPARCYRYQKNKPYPKS", "note": "[Rpl10(1–20)-yEGFP]", "values": [{"measurement": "binding", "setting": "Sqt1-TAP (S. cerevisiae) [8]", "value": "binds"}]}
{"binder": "B7", "values": [{"measurement": "binding", "setting": "Sqt1-TAP (S. cerevisiae) [8]", "value": "binds"}]}
{"binder": "MARRPARCYRYQKNKPYPKS (domain or fragment)", "note": "[Rpl10 amino acids 1–20 (yeast two-hybrid fusion)]", "values": [{"measurement": "binding", "setting": "[9]", "value": "binds"}, {"measurement": "binding", "setting": "[10]", "value": "binds"}]}
